Data on one molecule can be found in patent US9011882B2, “Dimethylarginine dimethylaminohydrolase inhibitors and methods of use thereof” (The Board of Trustees of the Leland Stanford Junior …, priority 2012, dated 2015).

The chains behind the UniProt entries cited, without tags or fusion partners.
UniProt O94760, whole entry: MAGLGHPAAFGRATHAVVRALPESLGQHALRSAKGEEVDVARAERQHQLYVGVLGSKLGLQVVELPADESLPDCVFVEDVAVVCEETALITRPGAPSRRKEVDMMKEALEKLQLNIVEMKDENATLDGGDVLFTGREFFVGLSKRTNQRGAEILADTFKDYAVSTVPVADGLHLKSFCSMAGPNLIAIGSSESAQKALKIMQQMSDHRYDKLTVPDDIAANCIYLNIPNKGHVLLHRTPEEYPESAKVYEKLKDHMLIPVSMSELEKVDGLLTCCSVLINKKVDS

Not every entry of the source has a single result; some have several. The list is limited to them. There may be further records. The records of an entry differ, and nothing given here explains why; some may be repeats, others may stem from another dose, organism or construct than stated.

This assay has as its target recombinant human DDAH1 (rhDDAH1) (Homo sapiens (Human), UniProt O94760). As to the kind of experiment: Colorimetric L-citrulline assay of DDAH activity (ADMA substrate; high throughput screen and orthogonal validation). In kind it is biochemical. The conditions noted are these: high throughput screen of library copies (BMF-6, BMF-7, BMF-8, MicroSource, LOPAC), dose-dependent inhibition.

Turning to `COc1ccc2[nH]c([S+]([O-])Cc3ncc(C)c(OC)c3C)nc2c1` (stereo not shown) [Omeprazole], the IC50 is given as 61.4 µM, 20 µM, 85 µM.
